From PubChem BioAssay AID248 (DTP/NCI, 2004)
The list does not hold the whole screen: it gathers tests that were run many times, whatever their T/C, doses with no T/C, and many T/C values between a quarter and a half above the control. Other doses and runs of a compound stand elsewhere. T/C gives the treated animals as a percentage of the vehicle group. Some doses have a count of surviving animals in place of a T/C: the source holds a T/C of zero for them, seemingly a mark for toxic or unscored doses. Some survivor counts are full or nearly so, which does not show that the dose was tolerated: survival well below the control is almost never listed, so the zero probably covers shortened survival too. Counts of survivors are from the toxicity check (mostly the fifth day) where no day follows; animals may have died later. Schedule codes are those of the source, taken here to give the interval after Q, in days (D) or hours (H), and the number of doses after X. Some entries hold several experiments; the results are listed from low to high. Some schedule codes hold Z or #, which are not explained here. Counts like (3×) stand for listed records that agree. Where survival is the endpoint, this PubChem deposit counts one and a half times the control or more as active, and values a quarter to a half above the control carry no call in these data; other NCI protocols may use other cut-offs. Some T/C values are followed by the survivors on the day toxicity was checked, most often the fifth; without a count, all were alive then.

System: L1210 leukemia ip in BDF1 mice, survival T/C
Assay: NCI In Vivo Anticancer Drug Screen. Data for tumor model L1210 Leukemia (intraperitoneal) in B6D2F1 (BDF1) mice
Conditions: higher T/C = longer survival
[1] = T/C endpoint: mean survival time, dose: 2.0 mg/kg/injection, schedule: Q01DX009 (ip), vehicle: saline
[2] = T/C endpoint: mean survival time, dose: 2.0 mg/kg/injection, schedule: Q01DX010 (ip), vehicle: saline
[3] = T/C endpoint: mean survival time, dose: 4.0 mg/kg/injection, schedule: Q01DX001 (ip), vehicle: saline
[4] = T/C endpoint: mean survival time, dose: 4.0 mg/kg/injection, schedule: Q04DX003 (ip), vehicle: saline
[5] = T/C endpoint: mean survival time, dose: 4.0 mg/kg/injection, schedule: Q## X003 (ip), vehicle: saline

C1CN1c1nc(N2CC2)nc(N2CC2)n1
survivor count (T/C endpoint: mean survival time, dose: 2.0 mg/kg/injection, schedule: Q01DX006 (iv), vehicle: saline): 6 of 6
T/C [1]: 89 % of control
survivor count [1]: 4 of 6 and 6 of 6
T/C (T/C endpoint: mean survival time, dose: 2.0 mg/kg/injection, schedule: Q01DX009 (oral), vehicle: saline): 143 % of control
T/C [2]: 88 % of control
survivor count [2]: 6 of 6
survivor count (T/C endpoint: mean survival time, dose: 2.0 mg/kg/injection, schedule: Q01DX Z (im), vehicle: saline): 5 of 6
survivor count (T/C endpoint: mean survival time, dose: 2.0 mg/kg/injection, schedule: Q01DX Z (ip), vehicle: saline): 6 of 6
T/C (T/C endpoint: mean survival time, dose: 2.0 mg/kg/injection, schedule: Q01DX Z (oral), vehicle: saline): 125 % of control
survivor count (T/C endpoint: mean survival time, dose: 2.0 mg/kg/injection, schedule: Q01DX Z (sc), vehicle: saline): 6 of 6
T/C (T/C endpoint: mean survival time, dose: 2.0 mg/kg/injection, schedule: Q04DX003 (ip), vehicle: Klucel (hydroxypropylcellulose) (HPC)): 125 and 130 % of control
T/C (T/C endpoint: mean survival time, dose: 2.0 mg/kg/injection, schedule: Q04DX003 (ip), vehicle: saline, evaluated on day 20): 88 % of control
T/C (T/C endpoint: mean survival time, dose: 2.0 mg/kg/injection, schedule: Q04DX003 (ip), vehicle: saline, evaluated on day 30): 113, 125, 134, 138, 178, 197, 219, 223 % of control
T/C (T/C endpoint: mean survival time, dose: 2.0 mg/kg/injection, schedule: Q04DX003 (ip), vehicle: saline, evaluated on day 60): 94, 95, 100, 112, 116 % of control
T/C (T/C endpoint: mean survival time, dose: 2.0 mg/kg/injection, schedule: Q## X008 (ip), vehicle: saline): 129 and 136 % of control
survivor count (T/C endpoint: mean survival time, dose: 2.0 mg/kg/injection, schedule: Q#A X Z (ip), vehicle: saline): 6 of 6
survivor count (T/C endpoint: mean survival time, dose: 2.25 mg/kg/injection, schedule: Q01DX005 (ip), vehicle: saline): 9 of 10
survivor count (T/C endpoint: mean survival time, dose: 3.0 mg/kg/injection, schedule: Q03DX Z (ip), vehicle: saline): 7 of 7
survivor count (T/C endpoint: mean survival time, dose: 3.2 mg/kg/injection, schedule: Q01DX009 (ip), vehicle: saline): 5 of 6
survivor count (T/C endpoint: mean survival time, dose: 3.5 mg/kg/injection, schedule: Q07DX Z (ip), vehicle: saline): 7 of 7
T/C [3]: 154 % of control
survivor count [3]: 6 of 10 and 7 of 7
survivor count (T/C endpoint: mean survival time, dose: 4.0 mg/kg/injection, schedule: Q01DX001 (sc), vehicle: saline): 1 of 10
survivor count (T/C endpoint: mean survival time, dose: 4.0 mg/kg/injection, schedule: Q01DX005 (ip), vehicle: saline): 10 of 10
survivor count (T/C endpoint: mean survival time, dose: 4.0 mg/kg/injection, schedule: Q01DX009 (ip), vehicle: saline): 6 of 6
survivor count (T/C endpoint: mean survival time, dose: 4.0 mg/kg/injection, schedule: Q01DX010 (oral), vehicle: carboxymethylcellulose (CMC)): 6 of 6
survivor count (T/C endpoint: mean survival time, dose: 4.0 mg/kg/injection, schedule: Q04DX003 (ip), vehicle: Klucel (hydroxypropylcellulose) (HPC)): 3 of 6 and 4 of 6
T/C [4]: 86, 88, 89, 91, 122 % of control
survivor count [4]: 2 of 10, 3 of 10, 4 of 10, 3 of 6, 6 of 10, 8 of 10, 5 of 6, 6 of 6 (2×)
T/C [5]: 148 % of control [8 of 10 alive]
survivor count [5]: 4 of 10
T/C (T/C endpoint: mean survival time, dose: 4.0 mg/kg/injection, schedule: Q## X016 (ip), vehicle: saline): 137 % of control
survivor count (T/C endpoint: mean survival time, dose: 4.0 mg/kg/injection, schedule: Q## X024 (ip), vehicle: saline): 4 of 10 and 9 of 10
survivor count (T/C endpoint: mean survival time, dose: 6.0 mg/kg/injection, schedule: Q03DX Z (ip), vehicle: saline): 7 of 7
survivor count (T/C endpoint: mean survival time, dose: 6.25 mg/kg/injection, schedule: Q01DX001 (ip), vehicle: saline): 6 of 6
survivor count (T/C endpoint: mean survival time, dose: 7.0 mg/kg/injection, schedule: Q07DX Z (ip), vehicle: saline): 7 of 7
survivor count (T/C endpoint: mean survival time, dose: 8.0 mg/kg/injection, schedule: Q01DX001 (ip), vehicle: saline): 8 of 10 and 7 of 7
T/C (T/C endpoint: mean survival time, dose: 8.0 mg/kg/injection, schedule: Q01DX001 (oral), vehicle: saline): 129 % of control
survivor count (T/C endpoint: mean survival time, dose: 8.0 mg/kg/injection, schedule: Q01DX005 (ip), vehicle: saline): 6 of 10
survivor count (T/C endpoint: mean survival time, dose: 8.0 mg/kg/injection, schedule: Q01DX010 (oral), vehicle: carboxymethylcellulose (CMC)): 5 of 6
survivor count (T/C endpoint: mean survival time, dose: 8.0 mg/kg/injection, schedule: Q01DX Z (oral), vehicle: saline): 6 of 6
survivor count (T/C endpoint: mean survival time, dose: 8.0 mg/kg/injection, schedule: Q## X008 (ip), vehicle: saline): 5 of 10
survivor count (T/C endpoint: mean survival time, dose: 12.5 mg/kg/injection, schedule: Q01DX001 (ip), vehicle: saline): 6 of 6
survivor count (T/C endpoint: mean survival time, dose: 14.0 mg/kg/injection, schedule: Q07DX Z (ip), vehicle: saline): 7 of 7
survivor count (T/C endpoint: mean survival time, dose: 16.0 mg/kg/injection, schedule: Q01DX001 (ip), vehicle: saline): 4 of 7
T/C (T/C endpoint: mean survival time, dose: 16.0 mg/kg/injection, schedule: Q01DX001 (oral), vehicle: saline): 127 % of control [7 of 10 alive]
survivor count (T/C endpoint: mean survival time, dose: 25.0 mg/kg/injection, schedule: Q01DX001 (ip), vehicle: saline): 2 of 6 and 6 of 6
survivor count (T/C endpoint: mean survival time, dose: 50.0 mg/kg/injection, schedule: Q01DX001 (ip), vehicle: saline): 0 of 6
survivor count (T/C endpoint: mean survival time, dose: 100.0 mg/kg/injection, schedule: Q01DX001 (ip), vehicle: saline): 0 of 6
survivor count (T/C endpoint: mean survival time, dose: 200.0 mg/kg/injection, schedule: Q01DX001 (ip), vehicle: saline): 0 of 6
T/C (T/C endpoint: median survival time, dose: 1.0 mg/kg/injection, schedule: Q01DX001 (ip), vehicle: saline, evaluated on day 8): 136 % of control
T/C (T/C endpoint: median survival time, dose: 1.0 mg/kg/injection, schedule: Q01DX001 (ip), vehicle: saline, evaluated on day 30): 136 % of control
T/C (T/C endpoint: median survival time, dose: 2.0 mg/kg/injection, schedule: Q01DX001 (ip), vehicle: saline, evaluated on day 8): 126 % of control
T/C (T/C endpoint: median survival time, dose: 2.0 mg/kg/injection, schedule: Q01DX001 (ip), vehicle: saline, evaluated on day 30): 126 % of control
